Experimental data from patent US7723364B2, “N-[2-(2-pyridinyl) ethyl]benzamide compounds and their use as fungicides” (Bayer Cropscience SA, priority 2003, dated 2010).
Some entries share one result that the patent states for a list of compounds.

Experiments:
Alternaria brassicae = experiment: In vivo test on Alternaria brassicae (leaf spot of crucifers) on radish plants; conditions: dose of 330 ppm; radish plants sprayed 24 hours before contamination; grading 6 to 7 days after contamination vs control plants
Experimental: In Vivo Test on Alternaria brassicae (Leaf Spot of Crucifers)
(§1) The active ingredient tested is prepared by potter homogenisation in a concentrated suspension type formulation at 100 g/l. This suspension is then diluted with water to obtain the desired active material concentration.
Radish plants (Pernot variety) in starter cups, sown on a 50/50 peat soil-pozzolana substrate and grown at 18-20° C., are treated at the cotyledon stage by spraying with the aqueous suspension described above.
Plants, used as controls, are treated with an aqueous solution not containing the active material.
After 24 hours, the plants are contaminated by spraying them with an aqueous suspension of Alternaria brassicae spores (40,000 spores per cm^3). The spores are collected from a 12 to 13 days-old culture.
The contaminated radish plants are incubated for 6-7 days at about 18° C., under a humid atmosphere.
Grading is carried out 6 to 7 days after the contamination, in comparison with the control plants.

Botrytis cinerea = experiment: In vivo test on Botrytis cinerea (cucumber grey mould); conditions: dose of 330 ppm; cucumber plants sprayed 24 hours before contamination; grading 5/7 days after contamination vs control plants
Experimental: In Vivo Test on Botrytis cinerea (Cucumber Grey Mould)
as §1
(§2) Cucumber plants (Marketer variety) in starter cups, sown on a 50/50 peat soil-pozzolana substrate and grown at 18-20° C., are treated at the cotyledon Z11 stage by spraying with the aqueous suspension described above. Plants, used as controls, are treated with an aqueous solution not containing the active material.
After 24 hours, the plants are contaminated by depositing drops of an aqueous suspension of Botrytis cinerea spores (150,000 spores per ml) on upper surface of the leaves. The spores are collected from a 15-day-old culture and are suspended in a nutrient solution composed of:
The contaminated cucumber plants are settled for 5/7 days in a climatic room at 15-11° C. (day/night) and at 80% relative humidity.
Grading is carried out 5/7 days after the contamination, in comparison with the control plants. Under these conditions, good (at least 50%) or total protection is observed at a dose of 330 ppm with the following compounds: 1, 2, 3, 4, 5, 6, 9, 10, 13, 18, 21, 22, 23, 25, 26, 27, 28, 29, 32, 34, 35, 38, 40, 43, 44, 45, 46, 47, 50, 51, 52, 53, 57 and 62.

Pyrenophora teres = experiment: In vivo test on Pyrenophora teres (barley net blotch); conditions: dose of 330 ppm; barley plants sprayed 24 hours before contamination; grading 12 days after contamination vs control plants
Experimental: In Vivo Test on Pyrenophora teres (Barley Net Blotch)
as §1
as §2, with “Barley” for “Cucumber”, “(Express” for “(Marketer”, “12°” for “18-20°”, “1-leaf” for “cotyledon Z11”, “stage (10 cm tall)” for “stage”
After 24 hours, the plants are contaminated by spraying them with an aqueous suspension of Pyrenophora teres spores (12,000 spores per ml). The spores are collected from a 12-day-old culture. The contaminated barley plants are incubated for 24 hours at about 20° C. and at 100% relative humidity, and then for 12 days at 80% relative humidity.

| Compound | good (at least 50%) or total protection (Alternaria brassicae) | good (at least 50%) or total protection (Botrytis cinerea) | good (at least 50%) or total protection (Pyrenophora teres) |
| --- | --- | --- | --- |
| CC(C)ON=Cc1cnc(CCNC(=O)c2ccccc2I)c(Cl)c1 [Compound 31] | at least 50% |  |  |
| CC(C)ON=Cc1cnc(CCNC(=O)c2ccccc2C(F)(F)F)c(Cl)c1 [Compound 30] | at least 50% |  |  |
| CON=C(C)c1cnc(CCNC(=O)c2ccccc2Cl)c(Cl)c1 [Compound 15] | at least 50% |  |  |
| CC(C)ON=Cc1cnc(CCNC(=O)c2ccccc2Br)c(Cl)c1 [Compound 32] | at least 50% | at least 50% |  |
| CON=C(C)c1cnc(CCNC(=O)c2ccccc2I)c(Cl)c1 [Compound 16] | at least 50% |  | at least 50% |
| CON=Cc1cnc(CCNC(=O)c2ccccc2C(F)(F)F)c(Cl)c1 [Compound 26] | at least 50% | at least 50% |  |
| CON=Cc1cnc(CCNC(=O)c2ccccc2I)c(Cl)c1 [Compound 25] | at least 50% | at least 50% |  |
| CCON=Cc1cnc(CCNC(=O)c2ccccc2I)c(Cl)c1 [Compound 27] | at least 50% | at least 50% |  |
| CCON=Cc1cnc(CCNC(=O)c2ccccc2C(F)(F)F)c(Cl)c1 [Compound 28] | at least 50% | at least 50% | at least 50% |
| CON=C(C)c1cnc(CCNC(=O)c2ccccc2C(F)(F)F)c(Cl)c1 [Compound 17] | at least 50% |  |  |
